{"sequences": {"note": "The chains behind the UniProt entries cited, without tags or fusion partners. Where a name states a change or a piece, a line headed by the entry shows the natural chain unless it says otherwise.", "UniProt Q13362, whole entry, looked up": "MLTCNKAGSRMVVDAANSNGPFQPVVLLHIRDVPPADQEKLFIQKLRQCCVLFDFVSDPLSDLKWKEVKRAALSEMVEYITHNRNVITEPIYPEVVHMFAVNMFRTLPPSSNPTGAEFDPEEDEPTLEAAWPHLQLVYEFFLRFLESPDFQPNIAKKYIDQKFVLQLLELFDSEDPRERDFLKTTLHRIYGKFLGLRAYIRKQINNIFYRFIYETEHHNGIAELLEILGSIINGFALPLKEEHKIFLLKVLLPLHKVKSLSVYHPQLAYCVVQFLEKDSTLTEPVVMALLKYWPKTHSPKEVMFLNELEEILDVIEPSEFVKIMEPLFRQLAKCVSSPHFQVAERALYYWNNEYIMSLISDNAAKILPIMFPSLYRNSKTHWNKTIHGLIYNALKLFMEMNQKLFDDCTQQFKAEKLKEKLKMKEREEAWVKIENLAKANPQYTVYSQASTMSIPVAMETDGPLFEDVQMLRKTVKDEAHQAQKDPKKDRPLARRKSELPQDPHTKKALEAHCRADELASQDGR", "UniProt O00743": "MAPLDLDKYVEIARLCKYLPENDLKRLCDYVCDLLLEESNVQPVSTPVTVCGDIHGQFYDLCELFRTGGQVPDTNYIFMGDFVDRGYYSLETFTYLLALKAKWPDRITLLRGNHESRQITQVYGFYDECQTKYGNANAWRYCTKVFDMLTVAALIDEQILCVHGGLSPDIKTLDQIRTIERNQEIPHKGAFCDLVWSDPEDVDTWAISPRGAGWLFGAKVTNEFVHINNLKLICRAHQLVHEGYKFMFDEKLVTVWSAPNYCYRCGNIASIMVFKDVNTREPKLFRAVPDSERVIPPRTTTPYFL", "UniProt Q5H9R7": "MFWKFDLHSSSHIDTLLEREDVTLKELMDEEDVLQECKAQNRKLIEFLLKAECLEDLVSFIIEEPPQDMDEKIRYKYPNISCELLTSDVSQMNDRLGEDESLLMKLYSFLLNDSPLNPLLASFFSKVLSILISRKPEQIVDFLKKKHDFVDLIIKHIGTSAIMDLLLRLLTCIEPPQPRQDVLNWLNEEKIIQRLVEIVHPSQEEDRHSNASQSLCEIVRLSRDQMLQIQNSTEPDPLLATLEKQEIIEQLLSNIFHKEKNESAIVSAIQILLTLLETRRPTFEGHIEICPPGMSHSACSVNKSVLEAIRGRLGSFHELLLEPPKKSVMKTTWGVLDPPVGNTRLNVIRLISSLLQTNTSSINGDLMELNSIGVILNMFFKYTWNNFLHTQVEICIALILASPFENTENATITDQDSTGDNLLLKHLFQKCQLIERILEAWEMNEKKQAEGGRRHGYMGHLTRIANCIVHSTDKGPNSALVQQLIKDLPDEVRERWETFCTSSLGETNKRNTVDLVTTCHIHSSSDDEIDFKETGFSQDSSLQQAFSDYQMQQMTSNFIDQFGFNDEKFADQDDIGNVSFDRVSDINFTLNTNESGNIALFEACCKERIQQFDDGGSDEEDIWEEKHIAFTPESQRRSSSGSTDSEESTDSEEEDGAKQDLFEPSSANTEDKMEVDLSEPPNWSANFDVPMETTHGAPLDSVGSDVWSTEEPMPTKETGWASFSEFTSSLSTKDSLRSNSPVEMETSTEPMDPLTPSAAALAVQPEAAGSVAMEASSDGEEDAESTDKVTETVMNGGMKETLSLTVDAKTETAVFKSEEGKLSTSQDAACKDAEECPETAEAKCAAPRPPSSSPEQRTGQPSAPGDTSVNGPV", "UniProt P60510": "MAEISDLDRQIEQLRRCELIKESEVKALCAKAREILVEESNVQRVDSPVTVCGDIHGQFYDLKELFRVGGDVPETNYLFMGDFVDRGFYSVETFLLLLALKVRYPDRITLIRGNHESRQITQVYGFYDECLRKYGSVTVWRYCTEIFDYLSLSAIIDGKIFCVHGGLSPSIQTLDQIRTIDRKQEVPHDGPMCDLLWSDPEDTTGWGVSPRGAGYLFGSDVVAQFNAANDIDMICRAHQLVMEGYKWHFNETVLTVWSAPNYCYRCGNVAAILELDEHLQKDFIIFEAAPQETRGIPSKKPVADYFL", "UniProt O43314": "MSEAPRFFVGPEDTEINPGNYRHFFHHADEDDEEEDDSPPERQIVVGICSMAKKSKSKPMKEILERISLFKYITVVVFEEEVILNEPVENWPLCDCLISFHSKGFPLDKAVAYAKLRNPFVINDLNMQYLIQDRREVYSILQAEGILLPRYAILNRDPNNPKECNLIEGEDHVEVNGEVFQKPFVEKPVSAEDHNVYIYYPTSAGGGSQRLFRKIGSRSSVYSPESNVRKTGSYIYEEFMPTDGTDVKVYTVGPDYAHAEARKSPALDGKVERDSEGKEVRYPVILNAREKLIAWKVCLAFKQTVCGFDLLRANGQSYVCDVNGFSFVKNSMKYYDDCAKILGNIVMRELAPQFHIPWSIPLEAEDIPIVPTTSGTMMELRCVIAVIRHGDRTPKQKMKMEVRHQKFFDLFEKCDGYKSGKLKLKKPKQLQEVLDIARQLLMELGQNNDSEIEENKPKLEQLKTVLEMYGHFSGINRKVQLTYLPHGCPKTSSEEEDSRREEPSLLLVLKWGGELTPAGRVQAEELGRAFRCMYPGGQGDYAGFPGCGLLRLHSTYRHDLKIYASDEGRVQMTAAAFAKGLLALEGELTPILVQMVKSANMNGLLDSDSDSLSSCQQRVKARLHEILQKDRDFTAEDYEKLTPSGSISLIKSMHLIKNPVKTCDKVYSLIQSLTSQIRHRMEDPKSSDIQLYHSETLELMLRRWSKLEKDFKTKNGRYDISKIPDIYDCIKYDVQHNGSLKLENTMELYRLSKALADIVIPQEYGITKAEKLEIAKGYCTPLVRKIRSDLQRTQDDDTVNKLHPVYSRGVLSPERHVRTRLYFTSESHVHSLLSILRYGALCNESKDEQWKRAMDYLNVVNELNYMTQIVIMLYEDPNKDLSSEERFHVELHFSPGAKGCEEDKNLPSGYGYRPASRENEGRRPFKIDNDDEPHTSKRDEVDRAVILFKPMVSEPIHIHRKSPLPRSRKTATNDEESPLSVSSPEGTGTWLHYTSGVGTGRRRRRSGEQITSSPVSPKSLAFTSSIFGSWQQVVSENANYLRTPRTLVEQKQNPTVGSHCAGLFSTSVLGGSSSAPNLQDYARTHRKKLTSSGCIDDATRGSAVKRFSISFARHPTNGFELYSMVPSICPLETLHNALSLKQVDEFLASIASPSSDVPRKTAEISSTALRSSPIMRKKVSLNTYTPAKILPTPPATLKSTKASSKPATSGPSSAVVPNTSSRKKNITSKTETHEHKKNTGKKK", "UniProt P48147": "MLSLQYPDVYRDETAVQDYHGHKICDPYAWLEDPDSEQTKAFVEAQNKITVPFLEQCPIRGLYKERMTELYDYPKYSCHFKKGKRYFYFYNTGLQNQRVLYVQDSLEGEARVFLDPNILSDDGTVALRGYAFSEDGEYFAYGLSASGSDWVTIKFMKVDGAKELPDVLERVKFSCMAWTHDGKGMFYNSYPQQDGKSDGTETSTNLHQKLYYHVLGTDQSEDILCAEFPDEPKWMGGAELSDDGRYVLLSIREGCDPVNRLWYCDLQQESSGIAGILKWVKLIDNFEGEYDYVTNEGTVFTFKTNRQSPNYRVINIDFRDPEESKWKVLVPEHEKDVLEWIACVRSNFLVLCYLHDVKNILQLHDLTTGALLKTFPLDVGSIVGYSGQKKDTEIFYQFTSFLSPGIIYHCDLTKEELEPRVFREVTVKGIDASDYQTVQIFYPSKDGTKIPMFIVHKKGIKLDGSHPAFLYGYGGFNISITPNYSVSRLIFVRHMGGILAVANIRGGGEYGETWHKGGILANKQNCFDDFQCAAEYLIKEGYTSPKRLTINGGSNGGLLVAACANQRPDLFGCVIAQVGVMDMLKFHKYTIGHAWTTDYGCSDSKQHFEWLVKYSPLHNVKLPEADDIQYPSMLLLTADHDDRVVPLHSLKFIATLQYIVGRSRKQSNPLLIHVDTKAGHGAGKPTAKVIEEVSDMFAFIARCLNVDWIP", "UniProt P30153, whole entry, looked up": "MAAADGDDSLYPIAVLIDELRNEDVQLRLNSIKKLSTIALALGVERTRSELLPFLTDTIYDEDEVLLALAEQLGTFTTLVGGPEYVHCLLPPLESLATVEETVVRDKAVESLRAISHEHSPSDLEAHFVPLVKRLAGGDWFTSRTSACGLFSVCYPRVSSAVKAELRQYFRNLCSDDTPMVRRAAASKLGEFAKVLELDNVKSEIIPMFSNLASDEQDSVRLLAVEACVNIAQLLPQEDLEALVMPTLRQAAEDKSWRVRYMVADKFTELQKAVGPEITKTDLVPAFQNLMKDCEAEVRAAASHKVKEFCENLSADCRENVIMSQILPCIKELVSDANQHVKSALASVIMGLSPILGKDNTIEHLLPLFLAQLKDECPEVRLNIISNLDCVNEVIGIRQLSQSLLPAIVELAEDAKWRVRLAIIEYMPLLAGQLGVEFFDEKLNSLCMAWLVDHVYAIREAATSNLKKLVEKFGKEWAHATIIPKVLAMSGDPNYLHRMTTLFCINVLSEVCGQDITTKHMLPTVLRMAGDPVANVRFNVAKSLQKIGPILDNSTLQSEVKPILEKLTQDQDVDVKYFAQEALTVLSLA", "UniProt Q6PFW1": "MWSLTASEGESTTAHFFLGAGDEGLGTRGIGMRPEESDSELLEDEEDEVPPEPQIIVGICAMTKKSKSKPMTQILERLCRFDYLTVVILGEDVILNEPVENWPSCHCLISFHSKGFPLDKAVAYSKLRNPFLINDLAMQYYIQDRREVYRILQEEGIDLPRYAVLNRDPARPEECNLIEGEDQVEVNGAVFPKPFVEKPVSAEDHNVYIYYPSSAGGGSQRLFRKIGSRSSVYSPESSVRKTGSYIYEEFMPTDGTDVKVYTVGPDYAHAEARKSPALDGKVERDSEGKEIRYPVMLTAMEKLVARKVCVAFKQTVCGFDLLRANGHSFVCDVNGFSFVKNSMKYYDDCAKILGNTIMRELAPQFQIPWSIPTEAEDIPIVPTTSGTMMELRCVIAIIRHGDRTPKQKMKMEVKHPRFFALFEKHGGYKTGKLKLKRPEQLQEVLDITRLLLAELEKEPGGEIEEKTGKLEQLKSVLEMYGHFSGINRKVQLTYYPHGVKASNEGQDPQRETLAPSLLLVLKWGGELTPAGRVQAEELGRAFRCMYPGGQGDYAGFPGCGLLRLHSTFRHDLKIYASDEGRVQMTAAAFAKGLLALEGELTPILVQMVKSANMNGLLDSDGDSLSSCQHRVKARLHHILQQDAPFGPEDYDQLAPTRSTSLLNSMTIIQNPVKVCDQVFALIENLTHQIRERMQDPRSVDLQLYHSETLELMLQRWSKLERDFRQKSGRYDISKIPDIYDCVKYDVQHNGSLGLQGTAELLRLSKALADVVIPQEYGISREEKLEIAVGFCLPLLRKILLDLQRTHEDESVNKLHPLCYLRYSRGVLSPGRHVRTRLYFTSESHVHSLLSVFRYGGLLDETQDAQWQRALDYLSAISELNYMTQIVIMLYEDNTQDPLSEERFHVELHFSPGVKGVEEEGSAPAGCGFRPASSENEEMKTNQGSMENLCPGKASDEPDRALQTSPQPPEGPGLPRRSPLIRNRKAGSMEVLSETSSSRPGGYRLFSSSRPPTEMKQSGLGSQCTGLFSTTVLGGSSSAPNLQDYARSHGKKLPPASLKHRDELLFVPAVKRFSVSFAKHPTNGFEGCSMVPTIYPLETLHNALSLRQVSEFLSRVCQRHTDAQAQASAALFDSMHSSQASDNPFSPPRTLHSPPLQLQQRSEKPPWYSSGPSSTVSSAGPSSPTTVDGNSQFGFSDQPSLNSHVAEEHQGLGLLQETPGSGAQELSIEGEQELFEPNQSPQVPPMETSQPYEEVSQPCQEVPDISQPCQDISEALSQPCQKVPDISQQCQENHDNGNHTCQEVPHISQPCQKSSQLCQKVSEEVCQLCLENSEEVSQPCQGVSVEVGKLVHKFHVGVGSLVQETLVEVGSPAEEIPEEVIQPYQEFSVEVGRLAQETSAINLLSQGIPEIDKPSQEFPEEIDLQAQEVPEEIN", "UniProt Q6NYC8": "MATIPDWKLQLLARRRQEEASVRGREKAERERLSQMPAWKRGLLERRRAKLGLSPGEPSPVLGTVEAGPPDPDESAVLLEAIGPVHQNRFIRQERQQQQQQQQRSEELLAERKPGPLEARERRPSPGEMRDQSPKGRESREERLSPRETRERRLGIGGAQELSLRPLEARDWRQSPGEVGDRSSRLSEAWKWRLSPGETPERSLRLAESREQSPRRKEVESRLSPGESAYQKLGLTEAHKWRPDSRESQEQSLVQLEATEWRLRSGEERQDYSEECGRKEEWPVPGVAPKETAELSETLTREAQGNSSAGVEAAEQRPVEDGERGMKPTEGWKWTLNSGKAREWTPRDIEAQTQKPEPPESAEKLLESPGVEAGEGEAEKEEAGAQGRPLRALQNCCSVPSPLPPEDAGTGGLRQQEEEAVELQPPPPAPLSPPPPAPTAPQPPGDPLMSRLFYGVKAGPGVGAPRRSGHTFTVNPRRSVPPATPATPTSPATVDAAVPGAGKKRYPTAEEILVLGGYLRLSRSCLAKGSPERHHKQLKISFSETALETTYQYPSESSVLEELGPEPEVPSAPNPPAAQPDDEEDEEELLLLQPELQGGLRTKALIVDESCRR"}, "source": "the supplement of paper PMC12067093", "about": "“Discovery and optimisation of a covalent ligand for TRIM25 and its application to targeted protein ubiquitination” (Chemical Science, 2025)", "note": "Some of the results follow.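 Note: competitive chemoproteomic profiling in live THP-1 cells with an iodoacetamide desthiobiotin (IA-DTB) probe, comparing probe-labelled peptide intensities in compound-treated cells against DMSO-treated controls.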", "data": [{"compound": "CC1Cc2ccccc2N1C(=O)C1CCCN(C1)C(=O)CCl (mixture of isomers) [TRIM25 ligand 11 (diastereomer mixture)]", "assay": "probe-labelled cysteine peptide fold change vs DMSO (competition) (log2 fold change); higher = less target engagement (more negative = stronger competition)", "details": "10 µM; THP-1; incubation time: 4 h", "values": [{"target": "PPP2R5C_Q13362_513_ALEAHCR (UniProt Q13362)", "probe-labelled cysteine peptide fold change": -0.187}, {"target": "PREX1_Q8TCU6_1021_KPSLIGLDPEQGHLNPMSYTQHCITTMAAPSWK (UniProt Q8TCU6)", "probe-labelled cysteine peptide fold change": -0.183}, {"target": "PPP1R9B_Q96SB3_270_ERCPAGQQPPQHR (UniProt Q96SB3)", "probe-labelled cysteine peptide fold change": -0.157}, {"target": "PPP6C_O00743_265_CGNIASIMVFK (UniProt O00743)", "probe-labelled cysteine peptide fold change": 0.0395}, {"target": "PREPL_Q4J6C6_160_LDQPFIDCIR (UniProt Q4J6C6)", "probe-labelled cysteine peptide fold change": 0.0512}, {"target": "PPP6R3_Q5H9R7_830_LSTSQDAACK (UniProt Q5H9R7)", "probe-labelled cysteine peptide fold change": -0.1}, {"target": "PPP4C_P60510_235_GAGYLFGSDVVAQFNAANDIDMICR (UniProt P60510)", "probe-labelled cysteine peptide fold change": -0.278}, {"target": "PPIP5K2_O43314_49_QIVVGICSMAK (UniProt O43314)", "probe-labelled cysteine peptide fold change": -0.09}, {"target": "PREP_P48147_532_QNCFDDFQCAAEYLIK (UniProt P48147)", "probe-labelled cysteine peptide fold change": 0.0303}, {"target": "PPIP5K2_O43314_729_IPDIYDCIK (UniProt O43314)", "probe-labelled cysteine peptide fold change": -0.0456}, {"target": "PRDX2_P32119_70_KLGCEVLGVSVDSQFTHLAWINTPR (UniProt P32119)", "probe-labelled cysteine peptide fold change": 0.0786}, {"target": "PPP2R1A_P30153_504+512_MTTLFCINVLSEVCGQDITTK (UniProt P30153)", "probe-labelled cysteine peptide fold change": 0.177}, {"target": "PPIP5K1_Q6PFW1_675_VCDQVFALIENLTHQIR (UniProt Q6PFW1)", "probe-labelled cysteine peptide fold change": -0.168}, {"target": "PPP1R18_Q6NYC8_611_ALIVDESCR (UniProt Q6NYC8)", "probe-labelled cysteine peptide fold change": 0.0833}, {"target": "PPP6R3_Q5H9R7_844_CAAPRPPSSSPEQR (UniProt Q5H9R7)", "probe-labelled cysteine peptide fold change": 0.00367}, {"target": "PRDX2_P32119_172_LVQAFQYTDEHGEVCPAGWKPGSDTIKPNVDDSK (UniProt P32119)", "probe-labelled cysteine peptide fold change": 0.0559}]}]}
